{"source": "paper PMC6763788", "binders": {"B1": {"name": "lipoma-preferred partner (LPP), endogenous in HeLa (protein, UniProt Q93052 1-612)", "chain": "MSHPSWLPPKSTGEPLGHVPARMETTHSFGNPSISVSTQQPPKKFAPVVAPKPKYNPYKQPGGEGDFLPPPPPPLDDSSALPSISGNFPPPPPLDEEAFKVQGNPGGKTLEERRSSLDAEIDSLTSILADLECSSPYKPRPPQSSTGSTASPPVSTPVTGHKRMVIPNQPPLTATKKSTLKPQPAPQAGPIPVAPIGTLKPQPQPVPASYTTASTSSRPTFNVQVKSAQPSPHYMAAPSSGQIYGSGPQGYNTQPVPVSGQCPPPSTRGGMDYAYIPPPGLQPEPGYGYAPNQGRYYEGYYAAGPGYGGRNDSDPTYGQQGHPNTWKREPGYTPPGAGNQNPPGMYPVTGPKKTYITDPVSAPCAPPLQPKGGHSGQLGPSSVAPSFRPEDELEHLTKKMLYDMENPPADEYFGRCARCGENVVGEGTGCTAMDQVFHVDCFTCIICNNKLRGQPFYAVEKKAYCEPCYINTLEQCNVCSKPIMERILRATGKAYHPHCFTCVMCHRSLDGIPFTVDAGGLIHCIEDFHKKFAPRCSVCKEPIMPAPGQEETVRIVALDRDFHVHCYRCEDCGGLLSEGDNQGCYPLDGHILCKTCNSARIRVLTAKASTDL"}}, "molecular_target": "T1, Flag-RITA (UniProt Q96K30)", "T1 sequence": "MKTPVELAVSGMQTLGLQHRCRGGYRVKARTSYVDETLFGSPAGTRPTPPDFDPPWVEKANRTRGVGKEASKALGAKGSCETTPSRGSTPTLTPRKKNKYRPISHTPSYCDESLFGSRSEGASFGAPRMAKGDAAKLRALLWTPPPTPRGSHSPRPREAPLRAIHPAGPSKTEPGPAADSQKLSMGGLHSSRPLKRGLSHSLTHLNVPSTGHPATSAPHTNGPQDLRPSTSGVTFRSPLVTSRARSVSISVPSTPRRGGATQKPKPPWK", "test": "co-IP; HeLa cells transfected with Flag empty vector or Flag-RITA; lysates in RIPA buffer (600-800 µg); Flag-M2 affinity gel, 4 °C overnight, washed three times; western blot", "note": "No constants are given. Whether binding was seen depends on the method and setting. In cells and extracts the contact can be indirect. Some binding calls cover weakened binding; strength is not graded here. Tags and fused reporters may be left off the sequences shown.", "data": [{"binder": "B1", "values": [{"measurement": "binding", "value": "binds"}]}]}
